Data as given in PubChem BioAssay AID1259308 (NCATS, 2017).
In all, the deposit lists about 59,000 reagents; below is a part drawn at random. About 1,510 of all reagents (2.6%) count as active. 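Calls use total luciferase alone and ignore viability, so some active siRNAs may act by altering cell number.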 The numbers tell different reagents against one gene apart.

Screen: 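Genes whose loss raises luciferase production in HEK293 cells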 (primary screen)
Cell system: human HEK293 embryonic kidney cells stably expressing firefly luciferase (HEK-CMV-Luc2-Hygro)
Reagents: single siRNA against human genes, 0.8 pmol siRNA per well
Duration: 72 h
Measurement: 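Luciferase light (ONE-Glo) measured on one replicate plate set and viability (CellTiter-Glo) on the other, scaled to a negative control siRNA, with robust z-scores and luciferase per cell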
Reading the numbers: total luciferase, z-score and total luciferase, % of control: higher = more reporter protein produced; luciferase per cell, z-score: higher = more reporter output per viable cell; viable cells, % of control: higher = more viable cells
Call rule: 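Active when the median/MAD z-score for overall luciferase is greater than 3; a gene was taken forward for validation with new siRNAs if at least two of its three siRNAs passed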
Meaning of the calls: active = raised luciferase; inactive = no rise

Gene | reagent | total luciferase, z-score | total luciferase, % of control | luciferase per cell, z-score | viable cells, % of control | activity call
LIAS (lipoic acid synthetase) | 1 | -1.94 | 43.2 | -1.27 | 67.5 | inactive
LIAS (lipoic acid synthetase) | 2 | -0.891 | 64.2 | 0.0469 | 70.8 | inactive
LIAS (lipoic acid synthetase) | 3 | -2.42 | 33.8 | -1.59 | 57.4 | inactive
ANO5 (anoctamin 5) | 1 | 0.0795 | 83.5 | 0.125 | 90.2 | inactive
ANO5 (anoctamin 5) | 2 | -0.145 | 79 | 0.127 | 85.4 | inactive
ANO5 (anoctamin 5) | 3 | 0.709 | 96 | 0.553 | 92.7 | inactive
ZNF697 (zinc finger protein 697) | 1 | 0.0392 | 82.7 | 0.0905 | 90.2 | inactive
ZNF697 (zinc finger protein 697) | 2 | 0.401 | 89.9 | 0.33 | 92 | inactive
ZNF697 (zinc finger protein 697) | 3 | 1.16 | 105 | 0.468 | 104 | inactive
POU4F1 (POU class 4 homeobox 1) | 1 | 0.582 | 93.5 | 1.28 | 74.6 | inactive
POU4F1 (POU class 4 homeobox 1) | 2 | 0.0736 | 83.4 | -0.23 | 98.9 | inactive
POU4F1 (POU class 4 homeobox 1) | 3 | 0.622 | 94.3 | 0.956 | 81.9 | inactive
SYCP2L (synaptonemal complex protein 2 like) | 1 | -0.347 | 75 | 1.24 | 60.4 | inactive
SYCP2L (synaptonemal complex protein 2 like) | 2 | -1.65 | 49 | -1.91 | 90.5 | inactive
SYCP2L (synaptonemal complex protein 2 like) | 3 | -0.194 | 78 | -0.449 | 98.1 | inactive
C10orf88 (chromosome 10 open reading frame 88) | 1 | -0.0758 | 80.4 | -0.443 | 101 | inactive
C10orf88 (chromosome 10 open reading frame 88) | 2 | 0.437 | 90.6 | -0.0232 | 102 | inactive
C10orf88 (chromosome 10 open reading frame 88) | 3 | -0.429 | 73.4 | -0.328 | 89.4 | inactive
BTBD7 (BTB domain containing 7) | 1 | 1.44 | 111 | 2.3 | 67.4 | inactive
BTBD7 (BTB domain containing 7) | 2 | -0.546 | 71 | 0.147 | 76.4 | inactive
BTBD7 (BTB domain containing 7) | 3 | 0.704 | 95.9 | 0.13 | 104 | inactive
CCDC181 (coiled-coil domain containing 181) | 1 | 1.21 | 106 | 1.88 | 72.2 | inactive
CCDC181 (coiled-coil domain containing 181) | 2 | 1.19 | 105 | 0.598 | 101 | inactive
CCDC181 (coiled-coil domain containing 181) | 3 | 1.17 | 105 | 1.56 | 78 | inactive

Copied from the listing for reference:
Gene | reagent | total luciferase, z-score | total luciferase, % of control | luciferase per cell, z-score | viable cells, % of control | activity call
ANO5 (anoctamin 5) | 3 | 0.709 | 96 | 0.553 | 92.7 | inactive
ZNF697 (zinc finger protein 697) | 1 | 0.0392 | 82.7 | 0.0905 | 90.2 | inactive
ZNF697 (zinc finger protein 697) | 2 | 0.401 | 89.9 | 0.33 | 92 | inactive
